Test [1] deals with FAM111A SPD T563P (human) (UniProt Q96PZ2). Description: SEC; Superdex 200 Increase 10/300 GL, MS300 buffer (20 mM Tris pH 7.5, 300 mM NaCl, 0.5 mM TCEP), 100 μL of 1 mg/mL SPD protein (32 μM); both purified.
The target of test [2] is FAM111A SPD V347D (human) (UniProt Q96PZ2). The description is as above.
Test [3] addresses full-length FAM111A with a C-terminal Flag or HA tag (human) (UniProt Q96PZ2). The test is described as follows: co-IP; anti-Flag M2 Affinity Gel on lysates (2 mg protein) in NP-40 lysis buffer (50 mM Tris-HCl pH 7.4, 150 mM NaCl, 0.1% NP-40), blots with anti-Flag and anti-HA.

Protein sequences, listed by entry. Tags and fused reporters are not part of them. Lines headed by an entry give the natural chain unless they say otherwise; changes in a name come on top. Chains listed by the source or under a name are the forms on record and can include a tag or linker.
UniProt Q96PZ2: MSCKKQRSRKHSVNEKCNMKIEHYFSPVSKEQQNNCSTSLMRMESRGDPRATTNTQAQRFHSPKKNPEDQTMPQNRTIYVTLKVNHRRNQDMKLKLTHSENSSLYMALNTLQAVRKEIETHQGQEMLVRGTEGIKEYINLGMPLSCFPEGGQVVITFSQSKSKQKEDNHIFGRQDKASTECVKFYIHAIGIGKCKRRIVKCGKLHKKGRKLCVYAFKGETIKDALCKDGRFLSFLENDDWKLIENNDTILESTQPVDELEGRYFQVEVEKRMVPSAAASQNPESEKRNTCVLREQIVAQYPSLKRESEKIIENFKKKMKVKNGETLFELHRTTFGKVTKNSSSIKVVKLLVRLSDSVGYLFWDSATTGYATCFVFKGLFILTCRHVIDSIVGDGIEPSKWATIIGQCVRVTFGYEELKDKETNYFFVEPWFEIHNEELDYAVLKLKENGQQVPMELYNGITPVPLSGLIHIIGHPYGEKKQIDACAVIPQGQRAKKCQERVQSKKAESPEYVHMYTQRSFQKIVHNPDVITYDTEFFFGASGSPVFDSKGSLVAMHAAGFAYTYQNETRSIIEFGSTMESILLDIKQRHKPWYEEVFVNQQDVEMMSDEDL
FAM111A SPD T563P (Q96PZ2, form named): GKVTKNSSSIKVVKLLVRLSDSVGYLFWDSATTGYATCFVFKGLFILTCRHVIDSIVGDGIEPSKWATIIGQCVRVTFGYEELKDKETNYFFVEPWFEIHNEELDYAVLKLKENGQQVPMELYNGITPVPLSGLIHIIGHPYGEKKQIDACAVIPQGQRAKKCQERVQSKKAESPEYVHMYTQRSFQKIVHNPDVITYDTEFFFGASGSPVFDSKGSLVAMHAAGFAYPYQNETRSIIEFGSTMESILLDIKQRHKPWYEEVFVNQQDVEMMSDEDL
FAM111A SPD V347D (Q96PZ2, form named): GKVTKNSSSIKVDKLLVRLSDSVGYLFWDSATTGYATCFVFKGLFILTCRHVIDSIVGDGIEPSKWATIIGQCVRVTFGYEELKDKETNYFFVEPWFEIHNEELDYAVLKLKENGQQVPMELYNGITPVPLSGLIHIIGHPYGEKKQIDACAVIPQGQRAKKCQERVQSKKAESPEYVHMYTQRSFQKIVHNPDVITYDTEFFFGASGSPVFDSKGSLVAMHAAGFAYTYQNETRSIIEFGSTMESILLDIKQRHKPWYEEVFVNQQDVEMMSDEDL

No constants are given. Whether binding was seen depends on the method and setting. For part of these data: In cells and extracts the contact can be indirect. Some entries that bind do so weakly or less than the wild type.

Consider “FAM111A SPD T563P (from UniProt Q96PZ2 335-611) (domain or fragment)”, for which the binding result in test [1] is reported as “binds”.
In the case of “FAM111A SPD V347D (from UniProt Q96PZ2 335-611) (domain or fragment)”, the binding result in test [2] was “no binding (tested: 32 μM)”.
As for “full-length FAM111A with a C-terminal Flag or HA tag (from UniProt Q96PZ2 1-611)”, in test [3], the binding entry is given as “binds”.

For the origin of these results see article PMC10920703.
